Test [1] addresses T1, RDR2 peptide 13 of the RDR2_(771–970) peptide array (A. thaliana) (UniProt O82504).
T1 sequence (peptide): AHLVHADRDPEKARS
Description: peptide or protein array; synthetic peptides (10 ng) dot-blotted onto nitrocellulose, probed with about 200 ng NRPD1_(1–300)-FLAG or RDR2_(771–970)-HA in 8 mL 50 mM Hepes-KOH pH 7.5, 100 mM NaCl, room temperature, 1 h; anti-FLAG-HRP or anti-HA-HRP, chemiluminescence; both purified.

Test [2] has as its target T2, RDR2 peptide 9 of the RDR2_(771–970) peptide array (A. thaliana) (UniProt O82504).
T2 sequence (peptide): PPMDYAGSRPRLMDH
The test is described as above.

Test [3] deals with T3, recombinant RNA-… RNA POLYMERASE 2 (RDR2), wild type, with N-terminal V5 epitope and 6xHis tags (A. thaliana) (UniProt O82504).
T3 sequence: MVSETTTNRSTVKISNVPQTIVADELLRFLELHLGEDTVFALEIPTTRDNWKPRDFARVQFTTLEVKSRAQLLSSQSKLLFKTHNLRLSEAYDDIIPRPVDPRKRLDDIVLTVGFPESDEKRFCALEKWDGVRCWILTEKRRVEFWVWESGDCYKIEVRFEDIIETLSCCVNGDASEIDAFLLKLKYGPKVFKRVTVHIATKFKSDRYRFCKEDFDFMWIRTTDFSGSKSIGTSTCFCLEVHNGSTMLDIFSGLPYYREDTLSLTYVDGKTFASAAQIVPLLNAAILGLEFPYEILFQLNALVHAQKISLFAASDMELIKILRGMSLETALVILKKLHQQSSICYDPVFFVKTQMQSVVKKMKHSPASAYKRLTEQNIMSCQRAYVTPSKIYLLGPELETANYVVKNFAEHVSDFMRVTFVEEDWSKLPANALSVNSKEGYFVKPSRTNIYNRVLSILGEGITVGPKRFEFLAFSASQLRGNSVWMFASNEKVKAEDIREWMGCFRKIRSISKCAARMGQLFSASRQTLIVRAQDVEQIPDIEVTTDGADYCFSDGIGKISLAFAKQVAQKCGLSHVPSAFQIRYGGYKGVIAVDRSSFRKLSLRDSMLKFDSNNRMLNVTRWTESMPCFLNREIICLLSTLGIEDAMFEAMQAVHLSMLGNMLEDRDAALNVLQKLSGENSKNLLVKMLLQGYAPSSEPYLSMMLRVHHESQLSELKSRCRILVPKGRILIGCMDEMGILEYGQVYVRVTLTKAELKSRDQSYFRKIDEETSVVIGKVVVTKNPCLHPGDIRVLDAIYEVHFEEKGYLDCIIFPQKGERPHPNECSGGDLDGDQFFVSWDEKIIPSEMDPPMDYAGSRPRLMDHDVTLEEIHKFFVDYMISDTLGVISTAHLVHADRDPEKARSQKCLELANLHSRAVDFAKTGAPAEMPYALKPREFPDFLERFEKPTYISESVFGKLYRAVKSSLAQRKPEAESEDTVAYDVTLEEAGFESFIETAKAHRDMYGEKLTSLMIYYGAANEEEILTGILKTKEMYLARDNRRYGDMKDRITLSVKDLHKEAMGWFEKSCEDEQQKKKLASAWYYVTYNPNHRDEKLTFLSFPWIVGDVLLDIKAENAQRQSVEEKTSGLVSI
Description: SEC; analytical gel filtration, Superdex 200 10/300 GL, 4 °C, 50 mM Hepes-KOH pH 7.5, 150 mM NaCl, mass estimated against protein standards; both purified.

Test [4] concerns the target T4, RDR2 fused to the Gal4 DNA binding domain or the Gal4 activation domain (A. thaliana) (UniProt O82504).
T4 sequence: T3 sequence
Description: two-hybrid; yeast two-hybrid, S. cerevisiae MaV203, Gal4 DBD (pDEST32) bait and Gal4 AD (pDEST22) prey, growth on medium lacking Trp, Leu, His with 25 mM 3AT, 3 d at 30 °C.

Results are given in words; binding and its absence hold for the method and conditions named. Some entries that bind do so weakly or less than the wild type. Sequences can lack the tags named with a protein.

This is an account of results in publication PMC8020760, “Assembly of a dsRNA synthesizing complex: RNA-DEPENDENT RNA POLYMERASE 2 contacts the largest subunit of NUCLEAR RNA POLYMERASE IV” (Proceedings of the National Academy of Sciences of the …, 2021).

B1: recombinant NRPD1_(1–300) with His and FLAG tags, made in E. coli (domain or fragment, A. thaliana, UniProt Q9LQ02 1-300, looked up)
chain: MEDDCEELQVPVGTLTSIGFSISNNNDRDKMSVLEVEAPNQVTDSRLGLPNPDSVCRTCGSKDRKVCEGHFGVINFAYSIINPYFLKEVAALLNKICPGCKYIRKKQFQITEDQPERCRYCTLNTGYPLMKFRVTTKEVFRRSGIVVEVNEESLMKLKKRGVLTLPPDYWSFLPQDSNIDESCLKPTRRIITHAQVYALLLGIDQRLIKKDIPMFNSLGLTSFPVTPNGYRVTEIVHQFNGARLIFDERTRIYKKLVGFEGNTLELSSRVMECMQYSRLFSETVSSSKDSANPYQKKSDT
notes: NRPD1, A. thaliana, amino acids 1-300 of 1,453; More in SI Appendix, Methods; also called NRPD1_(1–300)-FLAG; FLAG-tagged NRPD1_(1–300); source: E. coli (pET28 vector), purified (nickel-NTA by the methods; by its C-terminal FLAG tag by the results); not shown: FLAG, C-terminal, kept
Take B1: the binding result in test [1] and in test [2] was “no binding” each time.

B2: recombinant RNA-… RNA POLYMERASE 2 (RDR2), wild type, with N-terminal V5 epitope and 6xHis tags (enzyme, UniProt O82504 1-1133)
chain: T3 sequence
Take B2: the binding entry in test [3] is “no binding”.

B3: NRPD1 fused to the Gal4 DNA binding domain or the Gal4 activation domain (protein, UniProt Q9LQ02 1-1453)
chain: MEDDCEELQVPVGTLTSIGFSISNNNDRDKMSVLEVEAPNQVTDSRLGLPNPDSVCRTCGSKDRKVCEGHFGVINFAYSIINPYFLKEVAALLNKICPGCKYIRKKQFQITEDQPERCRYCTLNTGYPLMKFRVTTKEVFRRSGIVVEVNEESLMKLKKRGVLTLPPDYWSFLPQDSNIDESCLKPTRRIITHAQVYALLLGIDQRLIKKDIPMFNSLGLTSFPVTPNGYRVTEIVHQFNGARLIFDERTRIYKKLVGFEGNTLELSSRVMECMQYSRLFSETVSSSKDSANPYQKKSDTPKLCGLRFMKDVLLGKRSDHTFRTVVVGDPSLKLNEIGIPESIAKRLQVSEHLNQCNKERLVTSFVPTLLDNKEMHVRRGDRLVAIQVNDLQTGDKIFRSLMDGDTVLMNRPPSIHQHSLIAMTVRILPTTSVVSLNPICCLPFRGDFDGDCLHGYVPQSIQAKVELDELVALDKQLINRQNGRNLLSLGQDSLTAAYLVNVEKNCYLNRAQMQQLQMYCPFQLPPPAIIKASPSSTEPQWTGMQLFGMLFPPGFDYTYPLNNVVVSNGELLSFSEGSAWLRDGEGNFIERLLKHDKGKVLDIIYSAQEMLSQWLLMRGLSVSLADLYLSSDLQSRKNLTEEISYGLREAEQVCNKQQLMVESWRDFLAVNGEDKEEDSVSDLARFCYERQKSATLSELAVSAFKDAYRDVQALAYRYGDQSNSFLIMSKAGSKGNIGKLVQHSMCIGLQNSAVSLSFGFPRELTCAAWNDPNSPLRGAKGKDSTTTESYVPYGVIENSFLTGLNPLESFVHSVTSRDSSFSGNADLPGTLSRRLMFFMRDIYAAYDGTVRNSFGNQLVQFTYETDGPVEDITGEALGSLSACALSEAAYSALDQPISLLETSPLLNLKNVLECGSKKGQREQTMSLYLSEYLSKKKHGFEYGSLEIKNHLEKLSFSEIVSTSMIIFSPSSNTKVPLSPWVCHFHISEKVLKRKQLSAESVVSSLNEQYKSRNRELKLDIVDLDIQNTNHCSSDDQAMKDDNVCITVTVVEASKHSVLELDAIRLVLIPFLLDSPVKGDQGIKKVNILWTDRPKAPKRNGNHLAGELYLKVTMYGDRGKRNCWTALLETCLPIMDMIDWGRSHPDNIRQCCSVYGIDAGRSIFVANLESAVSDTGKEILREHLLLVADSLSVTGEFVALNAKGWSKQRQVESTPAPFTQACFSSPSQCFLKAAKEGVRDDLQGSIDALAWGKVPGFGTGDQFEIIISPKVHGFTTPVDVYDLLSSTKTMRRTNSAPKSDKATVQPFGLLHSAFLKDIKVLDGKGIPMSLLRTIFTWKNIELLSQSLKRILHSYEINELLNERDEGLVKMVLQLHPNSVEKIGPGVKGIRVAKSKHGDSCCFEVVRIDGTFEDFSYHKCVLGATKIIAPKKMNFYKSKYLKNGTLESGGFSENP
With B3, the binding entry in test [4] is “binds”.
